The source of these data is publication PMC5996148.

By UniProt entry, the sequences of proteins in these tests, tags left out.
UniProt P60228, whole entry: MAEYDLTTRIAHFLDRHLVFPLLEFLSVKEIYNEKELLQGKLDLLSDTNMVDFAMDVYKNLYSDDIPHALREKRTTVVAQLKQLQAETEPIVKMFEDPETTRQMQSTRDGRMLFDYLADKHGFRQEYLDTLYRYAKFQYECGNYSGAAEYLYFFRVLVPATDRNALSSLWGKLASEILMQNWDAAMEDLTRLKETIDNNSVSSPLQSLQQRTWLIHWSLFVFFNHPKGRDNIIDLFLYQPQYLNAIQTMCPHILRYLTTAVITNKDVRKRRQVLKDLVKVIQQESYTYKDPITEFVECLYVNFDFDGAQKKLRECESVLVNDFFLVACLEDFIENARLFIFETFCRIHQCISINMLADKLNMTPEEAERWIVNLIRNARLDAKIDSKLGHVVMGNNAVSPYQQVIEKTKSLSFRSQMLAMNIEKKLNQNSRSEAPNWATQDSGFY

Values joined by “and” are separate entries in the source; they are usually repeats but may differ in a detail not shown here. Equal entries are not always repeated. Some of the results follow. For some assays here: The exact form of the protein is not confirmed.

Among the test systems are ECM1 (human); EDEM3 (human); EDIL3 (human); EEF1G (human); EFCAB2 (human); EFCBP1 (human); EFS (human); EFTUD2 (human); EGFL8 (human); EIF2B1 (human); EIF2B2 (human); EIF2B3 (human); EIF2C2 (human); EIF3F (human); EIF3M (human); EIF4A2 (human); EIF5A2 (human); ELA2A (human).
Holding throughout (test): protein microarray (ProtoArray v5.0), streptavidin-Alexa Fluor 647
Common to all, as to conditions: 3'-biotin; 20 mM Tris (pH 7.5), 5 mM MgCl2, 100 mM KCl, 0.1% Tween-20, A/T-rich and random oligonucleotide blockers; temperature not stated; high values mean tight binding

In a further assay the target is EIF3S6 (UniProt P60228).
In a further assay the target is T1, EIF4EBP3 (UniProt O60516).
T1 sequence: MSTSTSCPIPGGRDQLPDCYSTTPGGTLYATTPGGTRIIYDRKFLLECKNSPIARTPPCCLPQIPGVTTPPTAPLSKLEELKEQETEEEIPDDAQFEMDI

Take “GGGAGGCTGAGGCAGG [G4-1 biotinylated (PQS2)]”: the binding signal was -0.316 z-score in the assay with ECM1 (human); -0.292 z-score in the assay on EDEM3 (human); -0.303 z-score with EDIL3 (human); -0.301 z-score in the assay with EEF1G (human); -0.284 z-score in the assay on EFCAB2 (human); -0.296 z-score with EFCBP1 (human). In addition, the binding signal with EFS (human) is -0.353 z-score; with EFTUD2 (human), -0.352 z-score; in the assay with EGFL8 (human) it was -0.309 z-score; in the assay with EIF2B1 (human) it was -0.333 z-score; with EIF2B2 (human), -0.363 z-score; in the assay on EIF2B3 (human), -0.307 z-score. Moreover, the binding signal with EIF2C2 (human) is -0.283 z-score; with EIF3F (human), -0.312 z-score; in the assay on EIF3M (human), -0.308 z-score; with EIF3S6 it was -0.359 z-score; in the assay with EIF4A2 (human), -0.238 z-score and -0.309 z-score; with EIF4EBP3 it was -0.319 z-score. Further, the binding signal in the assay with EIF5A2 (human) is -0.334 z-score; in the assay with ELA2A (human), -0.257 z-score.
